Measurements published in the supplement of paper PMC11546906.
Structures can show the parent of a compound that is named as a salt. The list shows a part of the results. This data set is noisy: repeats of one test often differ as much as different tests do.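 FDA-approved drugs were each paired with colistin at one-eighth its MIC and screened against a multidrug-resistant, mcr-1-positive clinical E. coli isolate, with OD600 read after 24 h. Drug-free bacteria served as growth control, plain broth as blank. Combinations were active if OD600 dropped below 0.2.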

Tested on: Escherichia coli 42 (mcr-1-positive clinical isolate)
Assay: OD600 after 24 h growth with compound plus colistin (absorbance units (OD600)); higher = more bacterial growth (less inhibition)
Conditions: first compound 25 µM; colistin concentration 0.5 ug/mL; incubation time 24 h; 37 °C

OD600, inactive:
COc1ccnc(C[S+]([O-])c2nc3cc(OC(F)F)ccc3[nH]2)c1OC (centres undefined) [Pantoprazole sodium] + CCC(C)CCCC(=O)N[C@@H](CCN)C(=O)N[C@H](C(=O)N[C@@H](CCN)C(=O)N[C@H]1CCNC(=O)[C@H]([C@@H](C)O)NC(=O)[C@H](CCN)NC(=O)[C@H](CCN)NC(=O)[C@H](CC(C)C)NC(=O)[C@@H](CC(C)C)NC(=O)[C@H](CCN)NC1=O)[C@@H](C)O [colistin] 1.05
C[C@H](C(=O)O)c1cccc(C(=O)c2ccccc2)c1 [S-(+)-Ketoprofen] + CCC(C)CCCC(=O)N[C@@H](CCN)C(=O)N[C@H](C(=O)N[C@@H](CCN)C(=O)N[C@H]1CCNC(=O)[C@H]([C@@H](C)O)NC(=O)[C@H](CCN)NC(=O)[C@H](CCN)NC(=O)[C@H](CC(C)C)NC(=O)[C@@H](CC(C)C)NC(=O)[C@H](CCN)NC1=O)[C@@H](C)O [colistin] 0.909
CCC(=O)NCC[C@@H]1CCc2ccc3c(c21)CCO3 [Ramelteon] + CCC(C)CCCC(=O)N[C@@H](CCN)C(=O)N[C@H](C(=O)N[C@@H](CCN)C(=O)N[C@H]1CCNC(=O)[C@H]([C@@H](C)O)NC(=O)[C@H](CCN)NC(=O)[C@H](CCN)NC(=O)[C@H](CC(C)C)NC(=O)[C@@H](CC(C)C)NC(=O)[C@H](CCN)NC1=O)[C@@H](C)O [colistin] 1.05
CC(NCCc1ccc(O)cc1)C(O)c1ccc(O)cc1 (centres undefined) [Ritodrine hydrochloride] + CCC(C)CCCC(=O)N[C@@H](CCN)C(=O)N[C@H](C(=O)N[C@@H](CCN)C(=O)N[C@H]1CCNC(=O)[C@H]([C@@H](C)O)NC(=O)[C@H](CCN)NC(=O)[C@H](CCN)NC(=O)[C@H](CC(C)C)NC(=O)[C@@H](CC(C)C)NC(=O)[C@H](CCN)NC1=O)[C@@H](C)O [colistin] 0.763
